These are yes or no findings as the source states them, for the method shown. In cells and extracts the contact can be indirect. A result given as binding can be weak or reduced; the word gives no strength. Where a sequence is shown, tags or fusion partners need not be part of it.

In this assay the target is T1, MYC-SR-A1 (in HEK293 cells) (UniProt P30204).
T1 sequence: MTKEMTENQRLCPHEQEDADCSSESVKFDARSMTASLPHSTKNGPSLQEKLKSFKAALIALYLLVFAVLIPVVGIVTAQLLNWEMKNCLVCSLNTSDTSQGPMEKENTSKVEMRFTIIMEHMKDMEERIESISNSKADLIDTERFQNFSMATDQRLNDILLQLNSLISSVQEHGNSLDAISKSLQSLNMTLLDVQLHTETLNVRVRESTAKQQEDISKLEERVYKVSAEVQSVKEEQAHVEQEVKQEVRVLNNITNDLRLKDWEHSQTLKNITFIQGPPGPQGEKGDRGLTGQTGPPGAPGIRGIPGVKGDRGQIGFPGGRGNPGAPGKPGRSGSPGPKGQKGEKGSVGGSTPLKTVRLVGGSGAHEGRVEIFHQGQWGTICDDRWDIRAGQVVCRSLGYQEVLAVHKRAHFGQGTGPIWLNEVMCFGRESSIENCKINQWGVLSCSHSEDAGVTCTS
Put plainly: co-IP; HEK293 cells cotransfected with the FLAG-tagged N/M/C1/C2 fragments of USP9X and MYC-SR-A1; IP of whole cell lysates with MYC magnetic beads.
For “FLAG-USP9X-M (the middle region of USP9X) (domain or fragment)”, the binding result was “binds”.
The entry for “FLAG-tagged USP9X fragment N (the N-terminus containing the α-α supercoil structure) (domain or fragment)” is “no binding”; for “FLAG-tagged USP9X fragment C1 (containing the ubiquitin-specific protease domain) (domain or fragment)” it is “no binding”.

These data come from paper PMC9106359.
